Some results were stated once for a whole list of compounds, not compound by compound. Some compounds share one range, which may span the group rather than tell each member.
Test system: H1299 cells
Test: Standard glucose uptake assay, H1299
Format: cell-based, human
Details: for Glucose transport inhibition (%): Table 2, H1299, 30 μM, untreated cells 0% inhibition; for % inhibition of basal glucose transport: Table 3, 30 μM in H1299 cells
Experimental: Briefly, H1299 cancer cells were treated with or without the compounds (30 μM) in triplicates for 10 min before the glucose uptake assay. Cellular glucose uptake was measured by incubating cells in the glucose-free KRP buffer with […] [^3H]2-deoxyglucose (specific activity, 40 Ci/mmol) for 30 min in the absence or presence of compounds. After the cells were washed with ice-cold PBS and lysed by 0.2 N NaOH, the cell lysates were transferred to scintillation counting vials and the radioactivity in the cell lysates was quantified by liquid scintillation counting. Cell growth measurements were performed using an MTT assay in hexads in a 96-well tissue culture plate with 5,000 cells plated in each well. The cells were incubated in presence or absence of the compounds (30 μM) for 48 h. After incubation, cell viabilities were assayed using a 96-well SPECTRAMAX™ absorbance/fluorescence plate reader (Molecular Devices).
Cancer cells are treated with or without the compounds for 10 min before the glucose uptake assay. Cellular glucose uptake will be measured by incubating cells in glucose-free RPMI 1640 with […] [^3H]2-deoxyglucose (specific activity, 40 Ci/mmol) for 30 min in the absence and presence of compounds. After the cells are washed with ice-cold PBS and lysed, the cell lysates will be transferred to scintillation counting vials and the radioactivity in the cell lysates is quantified by liquid scintillation counting.

## O=C(Oc1cccc(OC(=O)c2cc(O)cc(O)c2)c1OC(=O)c1cc(O)cc(O)c1)c1cc(O)cc(O)c1 [Compound 2b]
  Glucose transport inhibition (%): > 90%
Listed as WZB-111
  % inhibition of basal glucose transport: 95-99%

## O=C(Oc1cccc(F)c1OC(=O)c1cc(O)cc(O)c1)c1cc(O)cc(O)c1 [Compound 1g]
Listed as WZB-113
  % inhibition of basal glucose transport: 95-99%

## O=C(Oc1cccc(F)c1OC(=O)c1ccc(O)c(O)c1)c1ccc(O)c(O)c1 [Compound 1j]
Listed as WZB-121
  % inhibition of basal glucose transport: 95-99%

## O=C(Oc1cccc(OC(=O)c2ccc(O)c(O)c2)c1OC(=O)c1ccc(O)c(O)c1)c1ccc(O)c(O)c1 [Compound 2c]
  Glucose transport inhibition (%): > 90%
Listed as WZB-119
  % inhibition of basal glucose transport: 95-99%

## O=C(Oc1ccc(Cl)cc1OC(=O)c1cc(O)cc(O)c1)c1cc(O)cc(O)c1 [Compound 1f]
Listed as WZB-114
  % inhibition of basal glucose transport: 95-99%

## COc1cccc(OC(=O)c2cc(O)cc(O)c2)c1OC(=O)c1cc(O)cc(O)c1 [Compound 1e]
Listed as WZB-112
  % inhibition of basal glucose transport: 95-99%
